Laboratory results from publication PMC7584643.
No constants are given. Whether binding was seen depends on the method and setting. Binding seen in cells or lysates may run through a third protein. Some entries that bind do so weakly or less than the wild type.

The chains behind the UniProt entries cited, without tags or fusion partners.
UniProt Q99708: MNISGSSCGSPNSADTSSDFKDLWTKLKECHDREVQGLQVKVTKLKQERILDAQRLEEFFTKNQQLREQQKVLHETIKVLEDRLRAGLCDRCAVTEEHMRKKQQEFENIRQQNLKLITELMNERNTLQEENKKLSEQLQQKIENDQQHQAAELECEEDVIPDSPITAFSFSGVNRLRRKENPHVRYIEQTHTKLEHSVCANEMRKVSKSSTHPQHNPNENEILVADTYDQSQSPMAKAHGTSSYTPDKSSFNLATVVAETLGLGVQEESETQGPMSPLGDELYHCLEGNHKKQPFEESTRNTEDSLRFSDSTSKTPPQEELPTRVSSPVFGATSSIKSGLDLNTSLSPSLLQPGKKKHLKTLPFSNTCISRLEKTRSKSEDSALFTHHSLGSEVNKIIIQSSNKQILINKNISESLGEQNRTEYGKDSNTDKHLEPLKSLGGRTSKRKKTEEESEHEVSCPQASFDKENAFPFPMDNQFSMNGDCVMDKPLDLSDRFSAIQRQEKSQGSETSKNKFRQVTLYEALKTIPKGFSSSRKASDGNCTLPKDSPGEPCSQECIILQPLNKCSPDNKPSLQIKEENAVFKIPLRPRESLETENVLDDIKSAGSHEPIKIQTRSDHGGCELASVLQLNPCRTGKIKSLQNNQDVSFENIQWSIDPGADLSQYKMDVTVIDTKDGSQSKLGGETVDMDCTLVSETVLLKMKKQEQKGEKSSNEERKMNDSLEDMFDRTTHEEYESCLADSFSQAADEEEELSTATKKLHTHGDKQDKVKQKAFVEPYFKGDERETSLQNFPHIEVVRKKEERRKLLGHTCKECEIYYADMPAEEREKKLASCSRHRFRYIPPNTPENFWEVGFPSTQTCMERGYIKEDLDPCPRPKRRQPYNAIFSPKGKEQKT

Tests used:
[1] = target: FLAG–CtIP (full-length) (human) (UniProt Q99708); assay: co-IP; FLAG–CtIP constructs transfected into HEK293T cells for 24 h; lysates in NETN buffer incubated with anti-FLAG agarose beads overnight at 4 °C; blotted for USP52
[2] = target: CtIP (endogenous) (human (endogenous in HEK293T)) (UniProt Q99708); assay: co-IP; HEK293T cell lysates precipitated with control IgG, anti-USP52 or anti-CtIP antibodies; endogenous proteins

B1: USP52 (endogenous) (protein, UniProt Q504Q3 1-1202)
chain: MNFEGLDPGLAEYAPAMHSALDPVLDAHLNPSLLQNVELDPEGVALEALPVQESVHIMEGVYSELHSVVAEVGVPVSVSHFDLHEEMLWVGSHGGHATSFFGPALERYSSFQVNGSDDIRQIQSLENGILFLTKNNLKYMARGGLIIFDYLLDENEDMHSLLLTDSSTLLVGGLQNHIIEIDLNTVQETQKYAVETPGVTIMRQTNRFFFCGHTSGKVSLRDLRTFKVEHEFDAFSGSLSDFDVHGNLLAACGFSSRLTGLACDRFLKVYDLRMMRAITPLQVHVDPAFLRFIPTYTSRLAIISQSGQCQFCEPTGLANPADIFHVNPVGPLLMTFDVSASKQALAFGDSEGCVHLWTDSPEPSFNPYSRETEFALPCLVDSLPPLDWSQDLLPLSLIPVPLTTDTLLSDWPAANSAPAPRRAPPVDAEILRTMKKVGFIGYAPNPRTRLRNQIPYRLKESDSEFDSFSQVTESPVGREEEPHLHMVSKKYRKVTIKYSKLGLEDFDFKHYNKTLFAGLEPHIPNAYCNCMIQVLYFLEPVRCLIQNHLCQKEFCLACELGFLFHMLDLSRGDPCQGNNFLRAFRTIPEASALGLILADSDEASGKGNLARLIQRWNRFILTQLHQDMQELEIPQAYRGAGGSSFCSSGDSVIGQLFSCEMENCSLCRCGSETVRASSTLLFTLSYPDGSKSDKTGKNYDFAQVLKRSICLDQNTQAWCDTCEKYQPTIQTRNIRHLPDILVINCEVNSSKEADFWRMQAEVAFKMAVKKHGGEISKNKEFALADWKELGSPEGVLVCPSIEELKNVWLPFSIRMKMTKNKGLDVCNWTDGDEMQWGPARAEEEHGVYVYDLMATVVHILDSRTGGSLVAHIKVGETYHQRKEGVTHQQWYLFNDFLIEPIDKHEAVQFDMNWKVPAILYYVKRNLNSRYNLNIKNPIEASVLLAEASLARKQRKTHTTFIPLMLNEMPQIGDLVGLDAEFVTLNEEEAELRSDGTKSTIKPSQMSVARITCVRGQGPNEGIPFIDDYISTQEQVVDYLTQYSGIKPGDLDAKISSKHLTTLKSTYLKLRFLIDIGVKFVGHGLQKDFRVINLMVPKDQVLDTVYLFHMPRKRMISLRFLAWYFLDLKIQGETHDSIEDARTALQLYRKYLELSKNGTEPESFHKVLKGLYEKGRKMDWKVPEPEGQTSPKNAAVFSSVLAL
binding [1]: binds | binding [2]: binds
